Assay results taken from PubChem BioAssay AID1794845 (National Center for Advancing Translational Sciences (NCATS), 2023).
In all, about 6,900 compounds went through this assay and fewer than 10 were called active. Calls come from the whole dose curve; as a rule, active = well fitted curve in the direction sought with a large enough effect; inconclusive = small, poorly fitted or top-dose-only effect, or another doubt; inactive = no such curve, though single readings can be large or run the other way. The list shows a part of the results.

By UniProt entry, the sequences of proteins in these tests, tags left out. Where a name states a change or a piece, a line headed by the entry shows the natural chain unless it says otherwise.
UniProt C7C422: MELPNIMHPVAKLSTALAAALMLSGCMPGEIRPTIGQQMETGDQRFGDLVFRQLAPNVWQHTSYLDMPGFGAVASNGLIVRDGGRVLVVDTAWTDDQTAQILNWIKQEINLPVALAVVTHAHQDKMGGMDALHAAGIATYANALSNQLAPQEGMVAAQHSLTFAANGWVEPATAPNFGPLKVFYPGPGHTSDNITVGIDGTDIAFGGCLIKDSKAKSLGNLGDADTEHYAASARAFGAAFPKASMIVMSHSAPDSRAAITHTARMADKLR

molecular target: Metallo-beta-lactamase type 2 (Klebsiella pneumoniae) (UniProt C7C422); assay: qHTS to identify inhibitors of the New Delhi Metallo-beta-lactamase (NDM): primary screen against the NCATS Gemini Collection; conditions: NDM-1 enzyme, meropenem hydrolysis, absorbance 300 nm; at 38.4 µM (top of the series) unless noted; note: % of control where 0% means no effect
From the text: Assay Submitter (PI): James Inglese Ph.D., Patricia Dranchak Ph.D., Mahesh Aitha Ph.D. Assay Development and Screening Technology Laboratory (ADST) National Center for Advancing Translational Sciences (NCATS), Rockville, MD National Institute of Health (NIH), Bethesda, Maryland The metallo-beta-lactamases (MBL) are a main antibiotic resistance mechanism evolved by bacteria. There is an urgent clinical need for MBL inhibitors to mitigate this growing threat. To support a machine-based learning study, qHTS has been used to experimentally test inhibitors identified by prediction tools.
PROTOCOL TABLE (as described by Inglese et al., 2007) SEQUENCE No. (e.g., 1, 2, 3, etc.); […] (e.g., enzyme, Incubation, Reagent, etc.); VALUE; DESCRIPTION 1; NDM-1; 4 uL of 3 nM enzyme [2 nM final] in 50 mM HEPES (pH 7.0), 1 uM […], 0.01% Tween20; Use BioRaptr to dispense into Aurora black, clear bottom low base 1536-well plates 2; Compounds; 23 nL; Use Pin Tool (Wako) to transfer DMSO control and library compounds in DMSO 3; Incubate; >30 min 4; Reagent; 2 uL of 150 uM meropenem [50 uM final] 5; Incubate; 30 min. 6; Detector; Absorbance at 300 nm (bandwidth = 5 nm, 25 flashes/well) on Tecan Infinity NOTES (numbers refer to sequence above) 1; Column 1 of each plate received assay buffer without enzyme and columns 2-48 received enzyme for a final assay concentration of 2 nM. 2; Control plate contained DMSO in columns 1, 2, 3, and 4. 3; Compound interaction with enzyme. 4; Meropenem substrate was prepared in the same assay buffer as step 1 for a final assay concentration of 50 uM and added to all wells across the assay plates. 5; Substrate interaction with enzyme, plateau phase of kinetics. 6; Default reader settings were applied for absorbance read at 300 nm, bandwidth = 5 nm, 25 flashes/well. References: Inglese J, Shamu CE, Guy RK. 2007. Reporting data from high-throughput screening of small-molecule libraries. Nat Chem Biol. doi:10.1038/nchembio0807-438 Yasgar A, Shinn P, Jadhav A, Auld D, Michael S, Zheng W, Austin CP, Inglese J, Simeonov A. 2008. Compound Management for Quantitative High-Throughput Screening. J Lab Autom 13:79 - 89. doi:10.1016/j.jala.2007.12.004

Activity % (negative = inhibition), inactive:
O=C1CN(Cc2ccc(-c3cc(F)cc(F)c3)cc2)CCN1c1cc(Cl)ncn1 12.4%, COc1ccccc1OCCNC(=O)c1ccc2c(c1)N(C)C1CCCCN1C2=O (configuration not stated) 13.8%, COc1ccccc1CC(=O)N1CCC2(CC1)N=C(c1ccc(C)cc1)NO2 15.1%, CC[C@@]1(O)CCN(C(=O)c2ccc(CSc3ccccc3)o2)C[C@H]1O 1.35%, O=C(NC1CCCCC1)O[C@@H]1CO[C@H]2[C@@H]1OC[C@@H]2n1nnnc1-c1ccc2c(c1)OCCO2 0.948%, COc1cccc(-c2noc(CCCc3nc(C4CCOC4)no3)n2)c1 (configuration not stated) 0.584%, COc1ccc(C2=NOC3(CCCN([S+](=O)([O-])c4cccc(C(F)(F)F)c4)C3)C2)cc1 (configuration not stated) -1.7%, CCn1ccc(C(=O)N2CCC(C3CCN(C(C)=O)CC3)C2)n1 (configuration not stated) -3.43%, O=C1NCCOCCCN(S(=O)(=O)c2ccccc2)[C@H]2CCCC[C@@H]12 77.7%, O=C(c1sccc1Cl)N1CCn2nc(C(O)c3ccccc3)cc2C1 (configuration not stated) -3.42%, Cc1cnc(C)c(-c2cc(O)c3c(c2)CNCCO3)n1 0.329%, CN1CC[C@H]2CN(C(=O)c3ccccc3-n3cccn3)C[C@@]2(C(=O)O)C1 2.24%, O=C(c1ccnnc1)N1CCC2(CCN(Cc3ccccn3)CC2)C(CO)C1 (configuration not stated) 3.88%, O=C1NCCCCCN(Cc2cn[nH]c2-c2ccc(F)cc2)[C@H]2CCC[C@@H]12 4.44%, Cc1nc(C)c(C(=O)NCCc2ncc(C)n2C2CC2)s1 0.113%, CN(C)Cc1nnc(C2CC(NC(=O)Cc3noc4ccccc34)C2)n1C (configuration not stated) 3.59%, COc1ccc(CNC(=O)C[C@@H]2C[C@H]3O[C@H](CNC4CCNCC4)[C@@H](O)[C@H]3O2)cc1 7.35% [at 57.5 µM], COc1ncccc1-c1cc2c(nc1OC)nc(CCc1ccccc1)n2C 10.2% [at 57.5 µM], CCCc1cc(CN(C)C(=O)c2ccc3c(c2)[nH]c(=O)n3C2CCC(O)CC2)[nH]n1 (configuration not stated) -0.083%, CC1(C)Cc2nc(C(C)(C)C)ncc2C(NC(=O)CCCN2CCCC2=O)C1 (configuration not stated) -3.79%, Cc1noc2c(Nc3ccc(C(N)=O)cc3)cc(-c3ccsc3)nc12 46.4% [at 57.5 µM], COCC[C@]1(O)CCN(C(=O)Nc2ccc(F)c(C(F)(F)F)c2)C[C@H]1C -2.48%, CC(C)=CCn1c(-c2cc(C)oc2C)cn2cc(C(=O)N(C)CC(C)C)nc2c1=O 2.4%, COc1ccc(N(C)C(=O)c2c(C)oc3c2CN(Cc2ccc(F)cc2)CC3)cc1 -1.33%, O=C(C[C@@H]1O[C@H](CNC(=O)Nc2ccccc2)[C@@H](O)[C@H]1O)NC1CC1 11.6% [at 57.5 µM], O=C(Nc1ccccc1)N1CCC(N(C(=O)C2CC2)C2CCOCC2)CC1 1.35%, O=C(NC1CC1)C1CCc2nnc(-c3cccnc3)n21 (configuration not stated) -1.25% [at 57.5 µM], CCO[C@H]1CN(C(=O)C(C)(C)Oc2ccc3c(c2)CCC3)C[C@@H]1O 1.81%, Cc1nc2ccccn2c1C(=O)NC(C)c1cnn(-c2ccccn2)c1C (configuration not stated) 8.57%, COc1ccc(S(=O)(=O)NCC2Cn3cccc3C(=O)N2Cc2ccccc2)cc1 (configuration not stated) 15.7%, Clc1ccc2oc([C@H]3CCN(Cc4ccccn4)C3)nc2c1 32.8% [at 57.5 µM], O=C(NCC1CN(C(=O)c2cnccn2)CC12CCOCC2)N1CCCC1 (configuration not stated) -2.99%, Cc1nc2cc(S(=O)(=O)N3CCOCC3)ccc2n1CCNC(=O)C1CC1 6.14%, Cc1ccc(CN2CCc3nc(C(=O)Nc4cccnc4)oc3CC2)o1 37.7% [at 57.5 µM], O=C(NCc1cccc(C(F)(F)F)c1)c1nc2sccn2c1-c1ccccc1 4.77%, COc1ccc(CNC(=O)O[C@H]2COCCN(c3nc4ccccc4s3)C2)cc1 12.3% [at 57.5 µM], Cc1ccncc1C(=O)N1CCCn2ccnc2C1c1ccccc1 (configuration not stated) 14.2%, O=C(Nc1ccc(Cl)nc1)c1cccn2cncc12 16% [at 57.5 µM], Cc1cc(C)n(C2CCN(c3nccc(-c4ccccn4)n3)C2)n1 (configuration not stated) 25.4%, O=C1NCC2(CCN(C(=O)c3ccccc3C3CCNC3)CC2)O1 (configuration not stated) 1.34%, CC(=O)NCCCC(=O)N1CCOC2(CCN(C(=O)NC(C)C)CC2)C1 7.15%, O=C(c1cnc(C23CC4CC(CC(C4)C2)C3)[nH]c1=O)N1C[C@H]2CNC[C@H]2C1 10.4%, O=[S+]1([O-])c2cccnc2OC(Cn2cccc2)CN1Cc1cccc(F)c1 (configuration not stated) -9.25% [at 16.1 µM], CSCC(=O)N1C[C@@H](NC(=O)NC(C)C)C[C@H]1C(=O)N[C@H](Cc1c[nH]c2ccccc12)C(N)=O 10.2%, N#Cc1cccc(-c2ccnc(N[C@H]3CO[C@H]4[C@@H]3OC[C@H]4OC(=O)NC3CCCCC3)n2)c1 22.5%, Cc1ccc(CCN2CCCCC23Cc2ccccc2CN([S+](C)(=O)[O-])C3)cc1 (configuration not stated) -10.2%, COc1ccc(NC(=O)N[C@H]2[C@H](O)[C@@H](Sc3ccccc3)[C@@H]3OC[C@H]2O3)cc1 1.2% [at 57.5 µM], CC(=O)N1CCCN(c2ncnc3c2CN(c2ccc([N+](=O)[O-])cc2)C(=O)N(C)C3)CC1 9.56%, O=C(c1cccnc1OC1CCN(Cc2ccccn2)C1)N1CCCCC1 (configuration not stated) 2.36%, COC(=O)[C@H]1CCCN1C(=O)[C@@H]1C[C@@H](NS(=O)(=O)c2cccs2)CCN1C(=O)COCC(=O)O -2.68%, CCn1nc(C)c(-c2cc(C(=O)NCCc3noc(COC)n3)no2)c1C 3.87%, CC(C)CCN1CCC(O)(c2csc(CN(C)Cc3cccnc3)n2)CC1 33.5% [at 57.5 µM]
